Source: the supplement of paper PMC12823440, “Inhibitors supercharge kinase turnover through native proteolytic circuits” (Nature, 2025)
The other results are listed elsewhere or left out. The calls rarely recur for the same compound in another form.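 In K562 cells expressing nanoluciferase-fused kinases, luminescence was recorded at 4 h intervals between 2 and 18 h, normalized as percent of control with DMSO at 100% and a positive control at 0%. A significant (2 sigma) signal drop marks a time point as decreased. The authors' rule for a hit is not shown and takes in more than the number of time points.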

By UniProt entry, the sequences of proteins in these tests, tags left out. Where a name states a change or a piece, a line headed by the entry shows the natural chain unless it says otherwise.
UniProt O15530: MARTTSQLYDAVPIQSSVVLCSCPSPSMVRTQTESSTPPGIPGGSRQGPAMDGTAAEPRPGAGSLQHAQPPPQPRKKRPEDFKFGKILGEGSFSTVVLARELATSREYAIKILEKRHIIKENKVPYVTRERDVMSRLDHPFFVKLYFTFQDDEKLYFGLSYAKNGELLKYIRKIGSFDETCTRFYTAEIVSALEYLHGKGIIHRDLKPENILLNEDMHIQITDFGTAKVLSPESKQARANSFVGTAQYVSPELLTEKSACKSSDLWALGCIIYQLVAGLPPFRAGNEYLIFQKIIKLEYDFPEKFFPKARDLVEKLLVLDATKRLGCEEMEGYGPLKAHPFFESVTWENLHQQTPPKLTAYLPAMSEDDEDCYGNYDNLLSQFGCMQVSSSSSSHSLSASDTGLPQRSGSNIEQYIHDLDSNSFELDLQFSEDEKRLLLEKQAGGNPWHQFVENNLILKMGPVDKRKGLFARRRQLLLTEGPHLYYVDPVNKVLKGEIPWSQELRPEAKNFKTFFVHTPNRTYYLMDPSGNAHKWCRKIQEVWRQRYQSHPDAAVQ
UniProt P42356, whole entry, looked up: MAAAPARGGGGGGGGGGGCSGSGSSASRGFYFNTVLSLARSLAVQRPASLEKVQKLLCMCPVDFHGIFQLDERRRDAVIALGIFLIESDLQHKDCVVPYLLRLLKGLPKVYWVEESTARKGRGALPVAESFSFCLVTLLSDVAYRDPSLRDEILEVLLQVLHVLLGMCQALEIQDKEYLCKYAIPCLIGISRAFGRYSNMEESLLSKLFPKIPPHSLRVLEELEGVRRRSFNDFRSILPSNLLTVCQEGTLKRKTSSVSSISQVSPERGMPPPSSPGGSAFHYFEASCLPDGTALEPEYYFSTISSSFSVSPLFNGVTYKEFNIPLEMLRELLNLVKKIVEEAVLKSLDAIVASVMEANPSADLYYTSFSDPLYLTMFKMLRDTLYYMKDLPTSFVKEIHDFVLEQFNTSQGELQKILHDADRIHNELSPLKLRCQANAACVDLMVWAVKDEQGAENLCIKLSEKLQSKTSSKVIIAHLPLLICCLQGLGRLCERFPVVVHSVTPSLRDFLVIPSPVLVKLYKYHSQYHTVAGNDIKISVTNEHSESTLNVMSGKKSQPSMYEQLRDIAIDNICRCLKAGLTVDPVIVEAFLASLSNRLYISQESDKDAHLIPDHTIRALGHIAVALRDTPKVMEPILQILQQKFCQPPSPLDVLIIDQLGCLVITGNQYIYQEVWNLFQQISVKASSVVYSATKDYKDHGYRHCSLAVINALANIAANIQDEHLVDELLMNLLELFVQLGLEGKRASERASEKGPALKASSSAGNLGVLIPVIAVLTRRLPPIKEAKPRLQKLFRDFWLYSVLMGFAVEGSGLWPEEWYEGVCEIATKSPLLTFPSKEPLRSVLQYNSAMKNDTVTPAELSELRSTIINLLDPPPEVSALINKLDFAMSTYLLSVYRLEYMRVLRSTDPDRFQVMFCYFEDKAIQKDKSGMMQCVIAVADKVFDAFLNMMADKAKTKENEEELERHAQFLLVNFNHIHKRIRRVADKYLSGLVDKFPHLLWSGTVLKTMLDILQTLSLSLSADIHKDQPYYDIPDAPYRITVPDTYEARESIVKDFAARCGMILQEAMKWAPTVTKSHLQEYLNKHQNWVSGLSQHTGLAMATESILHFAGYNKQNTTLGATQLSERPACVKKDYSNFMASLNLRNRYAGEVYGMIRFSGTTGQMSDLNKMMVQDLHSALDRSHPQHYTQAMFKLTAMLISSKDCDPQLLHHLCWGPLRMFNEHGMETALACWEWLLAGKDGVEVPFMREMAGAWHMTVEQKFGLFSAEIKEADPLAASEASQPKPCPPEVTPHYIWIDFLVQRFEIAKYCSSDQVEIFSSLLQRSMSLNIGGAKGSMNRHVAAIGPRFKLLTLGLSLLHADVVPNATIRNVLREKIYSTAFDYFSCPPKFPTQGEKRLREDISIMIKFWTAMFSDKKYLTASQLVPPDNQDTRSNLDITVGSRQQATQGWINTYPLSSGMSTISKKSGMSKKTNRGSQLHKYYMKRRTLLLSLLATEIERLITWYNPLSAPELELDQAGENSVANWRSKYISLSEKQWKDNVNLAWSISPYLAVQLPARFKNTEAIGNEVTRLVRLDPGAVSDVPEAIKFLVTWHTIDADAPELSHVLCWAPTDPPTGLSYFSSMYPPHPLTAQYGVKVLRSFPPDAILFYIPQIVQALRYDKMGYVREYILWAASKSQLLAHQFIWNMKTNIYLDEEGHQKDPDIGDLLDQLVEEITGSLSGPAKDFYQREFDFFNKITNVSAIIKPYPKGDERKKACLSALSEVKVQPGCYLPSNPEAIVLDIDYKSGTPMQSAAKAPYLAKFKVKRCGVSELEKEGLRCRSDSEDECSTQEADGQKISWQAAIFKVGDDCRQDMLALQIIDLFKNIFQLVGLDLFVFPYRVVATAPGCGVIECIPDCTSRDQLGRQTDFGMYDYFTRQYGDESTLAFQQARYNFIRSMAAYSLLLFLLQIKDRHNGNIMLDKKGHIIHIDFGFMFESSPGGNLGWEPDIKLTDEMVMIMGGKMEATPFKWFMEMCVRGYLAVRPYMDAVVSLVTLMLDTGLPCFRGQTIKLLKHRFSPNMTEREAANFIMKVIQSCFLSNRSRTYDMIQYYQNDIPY
UniProt Q9UBF8: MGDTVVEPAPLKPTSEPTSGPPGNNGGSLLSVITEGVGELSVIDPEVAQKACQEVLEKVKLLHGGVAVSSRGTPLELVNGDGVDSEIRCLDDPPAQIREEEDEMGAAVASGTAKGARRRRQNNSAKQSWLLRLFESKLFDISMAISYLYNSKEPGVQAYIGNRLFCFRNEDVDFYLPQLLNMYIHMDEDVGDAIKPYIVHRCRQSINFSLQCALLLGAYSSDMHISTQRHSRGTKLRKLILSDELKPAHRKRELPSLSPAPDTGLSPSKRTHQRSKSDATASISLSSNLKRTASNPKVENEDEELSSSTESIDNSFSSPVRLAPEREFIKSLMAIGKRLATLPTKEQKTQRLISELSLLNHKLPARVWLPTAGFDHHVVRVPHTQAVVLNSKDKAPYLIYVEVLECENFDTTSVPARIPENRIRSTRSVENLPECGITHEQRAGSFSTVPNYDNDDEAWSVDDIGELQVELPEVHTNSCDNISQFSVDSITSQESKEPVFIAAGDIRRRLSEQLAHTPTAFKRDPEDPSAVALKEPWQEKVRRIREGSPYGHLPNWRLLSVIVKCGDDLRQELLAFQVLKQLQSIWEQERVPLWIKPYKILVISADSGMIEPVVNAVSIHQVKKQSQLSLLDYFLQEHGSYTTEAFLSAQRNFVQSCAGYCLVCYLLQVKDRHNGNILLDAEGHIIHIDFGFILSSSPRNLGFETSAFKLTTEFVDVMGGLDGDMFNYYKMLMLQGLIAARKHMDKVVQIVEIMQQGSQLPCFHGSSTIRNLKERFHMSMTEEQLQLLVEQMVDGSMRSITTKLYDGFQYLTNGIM
UniProt P53350, whole entry: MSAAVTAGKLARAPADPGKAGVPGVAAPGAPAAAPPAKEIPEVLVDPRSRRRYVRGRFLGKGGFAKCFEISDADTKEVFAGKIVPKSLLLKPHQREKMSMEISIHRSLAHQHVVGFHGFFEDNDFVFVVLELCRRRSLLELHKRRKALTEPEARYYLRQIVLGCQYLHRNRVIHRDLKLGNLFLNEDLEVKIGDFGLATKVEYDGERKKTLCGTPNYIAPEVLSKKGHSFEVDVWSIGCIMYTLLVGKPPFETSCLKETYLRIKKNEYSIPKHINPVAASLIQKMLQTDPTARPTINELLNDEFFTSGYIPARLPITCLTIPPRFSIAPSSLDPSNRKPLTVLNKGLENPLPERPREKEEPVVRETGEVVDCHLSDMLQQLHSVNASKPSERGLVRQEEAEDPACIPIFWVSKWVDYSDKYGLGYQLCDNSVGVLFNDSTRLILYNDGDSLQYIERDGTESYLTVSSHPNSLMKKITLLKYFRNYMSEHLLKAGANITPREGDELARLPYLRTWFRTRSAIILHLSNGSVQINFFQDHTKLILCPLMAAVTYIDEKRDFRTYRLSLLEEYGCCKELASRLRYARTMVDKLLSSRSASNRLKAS
UniProt Q13131: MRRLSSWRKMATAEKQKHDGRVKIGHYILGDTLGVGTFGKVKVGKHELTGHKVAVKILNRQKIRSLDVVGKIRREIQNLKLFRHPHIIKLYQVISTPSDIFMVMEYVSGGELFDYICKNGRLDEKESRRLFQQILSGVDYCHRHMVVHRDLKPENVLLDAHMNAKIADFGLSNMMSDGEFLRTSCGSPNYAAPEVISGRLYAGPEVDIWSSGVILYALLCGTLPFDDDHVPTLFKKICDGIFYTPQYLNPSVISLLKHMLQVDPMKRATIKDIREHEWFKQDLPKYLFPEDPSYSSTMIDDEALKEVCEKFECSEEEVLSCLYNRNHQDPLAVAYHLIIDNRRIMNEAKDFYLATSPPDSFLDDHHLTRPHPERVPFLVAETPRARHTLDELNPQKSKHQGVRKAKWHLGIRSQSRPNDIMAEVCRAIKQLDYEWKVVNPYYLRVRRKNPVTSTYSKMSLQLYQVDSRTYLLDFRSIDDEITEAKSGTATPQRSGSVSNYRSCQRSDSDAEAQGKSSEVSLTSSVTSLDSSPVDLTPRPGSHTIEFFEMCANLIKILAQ
UniProt Q05397, whole entry, looked up: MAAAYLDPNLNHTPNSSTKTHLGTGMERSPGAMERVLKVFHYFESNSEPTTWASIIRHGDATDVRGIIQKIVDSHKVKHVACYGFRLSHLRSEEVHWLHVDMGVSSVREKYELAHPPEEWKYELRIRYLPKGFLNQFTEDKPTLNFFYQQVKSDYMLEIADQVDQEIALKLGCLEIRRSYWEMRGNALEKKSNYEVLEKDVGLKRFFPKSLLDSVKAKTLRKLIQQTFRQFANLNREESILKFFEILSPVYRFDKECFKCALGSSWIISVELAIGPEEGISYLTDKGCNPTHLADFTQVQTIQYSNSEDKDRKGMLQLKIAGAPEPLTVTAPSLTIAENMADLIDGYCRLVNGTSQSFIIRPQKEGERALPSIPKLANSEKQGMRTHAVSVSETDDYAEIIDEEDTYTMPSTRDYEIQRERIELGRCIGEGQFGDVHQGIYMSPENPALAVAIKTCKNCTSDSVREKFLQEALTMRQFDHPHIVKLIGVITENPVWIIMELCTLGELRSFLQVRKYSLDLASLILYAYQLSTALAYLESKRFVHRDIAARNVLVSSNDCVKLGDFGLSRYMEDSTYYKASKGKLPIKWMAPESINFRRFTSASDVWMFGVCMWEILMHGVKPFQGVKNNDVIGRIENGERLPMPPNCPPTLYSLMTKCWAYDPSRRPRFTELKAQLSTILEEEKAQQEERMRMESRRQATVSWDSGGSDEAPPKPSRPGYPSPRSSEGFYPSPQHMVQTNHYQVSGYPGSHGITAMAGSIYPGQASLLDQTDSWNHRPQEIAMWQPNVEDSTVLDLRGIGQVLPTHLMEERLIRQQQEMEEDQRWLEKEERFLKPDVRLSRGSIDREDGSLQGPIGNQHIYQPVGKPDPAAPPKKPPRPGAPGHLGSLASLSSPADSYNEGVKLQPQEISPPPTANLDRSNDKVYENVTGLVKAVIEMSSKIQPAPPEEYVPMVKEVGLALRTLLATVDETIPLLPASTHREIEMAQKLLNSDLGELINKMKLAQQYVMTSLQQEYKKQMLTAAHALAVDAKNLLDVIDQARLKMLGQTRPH

How the values were obtained:
Assay in all cases: kinase-Nluc reporter destabilization hit call (1 = scored as downregulated) (binary); higher = compound decreases kinase abundance
Conditions in all cases: K562; 2-18 h
PDPK1 = PDPK1 (UniProt O15530)
PIK4CA = PIK4CA (UniProt P42356)
PIK4CB = PIK4CB (UniProt Q9UBF8)
PLK1 = PLK1 (UniProt P53350)
PRKAA1 = PRKAA1 (UniProt Q13131)
PRKCA = PRKCA (UniProt P17252)
PTK2 = PTK2 (UniProt Q05397)
PTK2B = PTK2B (UniProt Q14289)
RAF1 = RAF1 (UniProt P04049)
[1] = biological target: RAF1_S257L (clone: RAF1_mut) (UniProt P04049)

| SMILES | kinase-Nluc reporter destabilization hit call (PDPK1) | kinase-Nluc reporter destabilization hit call (PIK4CA) | kinase-Nluc reporter destabilization hit call (PIK4CB) | kinase-Nluc reporter destabilization hit call (PLK1) | kinase-Nluc reporter destabilization hit call (PRKAA1) | kinase-Nluc reporter destabilization hit call (PRKCA) | kinase-Nluc reporter destabilization hit call (PTK2) | kinase-Nluc reporter destabilization hit call (PTK2B) | kinase-Nluc reporter destabilization hit call (RAF1) | kinase-Nluc reporter destabilization hit call [1] |
| --- | --- | --- | --- | --- | --- | --- | --- | --- | --- | --- |
| O=C1CCC(N2C(=O)c3cccc(OCCCCCOc4ccc(CC(=O)Nc5cc(C6CCC6)[nH]n5)cc4)c3C2=O)C(=O)N1 (stereo not given) [PROTAC CDK9 Degrader-1] (10 µM) | inactive: 0 | inactive: 0 | inactive: 0 | inactive: 0 | inactive: 0 | inactive: 0 | inactive: 0 | inactive: 0 | inactive: 0 | inactive: 0 |
| Nc1ccc(O)c(C(=O)O)c1 [5-Aminosalicylic Acid] (10 µM) | inactive: 0 | inactive: 0 | inactive: 0 | inactive: 0 | inactive: 0 | inactive: 0 | inactive: 0 | inactive: 0 | inactive: 0 | inactive: 0 |
| N#Cc1cc(-c2ccnc(Nc3ccc(N4CCOCC4)cc3)n2)ccc1OC1CCOCC1 (10 µM) | inactive: 0 | inactive: 0 | inactive: 0 | inactive: 0 | inactive: 0 | inactive: 0 | inactive: 0 | inactive: 0 | inactive: 0 | inactive: 0 |
| CC(ONC(=O)c1cc(C(F)(F)F)cc(C(F)(F)F)c1)C(=O)Nc1ccc(Cl)cc1 (stereo not given) (2.5 µM) | inactive: 0 | inactive: 0 | inactive: 0 | inactive: 0 | inactive: 0 | inactive: 0 | active: 1 | inactive: 0 | inactive: 0 | inactive: 0 |
| CC(=O)O[C@@H]1[C@@H](OC(C)=O)[C@@H](O)[C@H](Oc2c(-c3ccc(O)cc3)oc3cc(O)cc(O)c3c2=O)O[C@H]1C (10 µM) | inactive: 0 | inactive: 0 | inactive: 0 | inactive: 0 | inactive: 0 | inactive: 0 | inactive: 0 | inactive: 0 | inactive: 0 | inactive: 0 |
| O=S(=O)(c1ccc(O)cc1O)N1Cc2cc(O)cc(O)c2C1 (10 µM) | inactive: 0 | inactive: 0 | inactive: 0 | inactive: 0 | inactive: 0 | inactive: 0 | inactive: 0 | inactive: 0 | inactive: 0 | inactive: 0 |
| Cc1cccc(CC(=O)N2CCc3c2ccc(-c2cn(C)c4ncnc(N)c24)c3F)n1 (10 µM) | inactive: 0 | inactive: 0 | inactive: 0 | inactive: 0 | inactive: 0 | inactive: 0 | inactive: 0 | inactive: 0 | inactive: 0 | inactive: 0 |
| CC1(C)C=Cc2c(ccc(C(=O)/C=C/c3ccc(O)cc3)c2O)O1 [4-Hydroxylonchocarpin] (10 µM) | inactive: 0 | inactive: 0 | inactive: 0 | inactive: 0 | inactive: 0 | inactive: 0 | inactive: 0 | inactive: 0 | inactive: 0 | inactive: 0 |
| Nc1ccc(Sc2nc3ccccc3s2)c(Cl)c1 [KRAS inhibitor-9] (10 µM) | inactive: 0 | inactive: 0 | inactive: 0 | inactive: 0 | inactive: 0 | inactive: 0 | inactive: 0 | inactive: 0 | inactive: 0 | inactive: 0 |
| CO/N=C1/C(c2c(O)[nH]c3cc(Cl)c(Cl)cc23)=Nc2ccccc21 (10 µM) | inactive: 0 | inactive: 0 | inactive: 0 | inactive: 0 | inactive: 0 | inactive: 0 | inactive: 0 | inactive: 0 | inactive: 0 | inactive: 0 |
| COc1cc(Nc2ccnc3ccc(Br)cc23)cc(OC)c1OC (2.5 µM) | inactive: 0 | inactive: 0 | inactive: 0 | inactive: 0 | inactive: 0 | inactive: 0 | inactive: 0 | inactive: 0 | inactive: 0 | inactive: 0 |
| Cc1cnc(Nc2ccc(F)cc2Cl)nc1-c1c[nH]c(C(=O)N[C@H](CO)c2cccc(Cl)c2)c1 (10 µM) | inactive: 0 | inactive: 0 | inactive: 0 | inactive: 0 | inactive: 0 | inactive: 0 | inactive: 0 | inactive: 0 | inactive: 0 | inactive: 0 |
| O=C(Nc1ccc(Cl)cc1)C1CN(C(=O)c2cccc(-c3ccco3)c2)CC(F)(F)C1 (stereo not given) (2.5 µM) | inactive: 0 | inactive: 0 | inactive: 0 | inactive: 0 | inactive: 0 | inactive: 0 | inactive: 0 | inactive: 0 | inactive: 0 | inactive: 0 |
| Cc1ccc2c(NS(=O)(=O)c3ccccc3Cl)cccc2c1Oc1ncccc1-c1ccnc(N[C@H]2CCCNC2)n1 (2.5 µM) | inactive: 0 | inactive: 0 | inactive: 0 | inactive: 0 | inactive: 0 | inactive: 0 | inactive: 0 | inactive: 0 | inactive: 0 | inactive: 0 |
| CNC(=O)CN1CCC(Oc2cc3c(Nc4cccc(Cl)c4F)ncnc3cc2OC)CC1 [Sapitinib] (10 µM) | inactive: 0 | inactive: 0 | inactive: 0 | inactive: 0 | inactive: 0 | inactive: 0 | inactive: 0 | inactive: 0 | inactive: 0 | inactive: 0 |
| C[C@@H]1COC(Nc2ccc3ncnc(Nc4ccc(OCc5nccs5)c(Cl)c4)c3c2)=N1 [Varlitinib] (10 µM) | inactive: 0 | inactive: 0 | inactive: 0 | inactive: 0 | inactive: 0 | inactive: 0 | active: 1 | inactive: 0 | inactive: 0 | inactive: 0 |
| CN1CCN(c2ccc(-c3ccncc3-c3cc(F)c(O)c(F)c3)cc2)CC1 (10 µM) | inactive: 0 | inactive: 0 | inactive: 0 | inactive: 0 | inactive: 0 | inactive: 0 | inactive: 0 | inactive: 0 | inactive: 0 | inactive: 0 |
| O=c1c(O)c(-c2ccc(O)c(O)c2)oc2cc(O)c(O)c(O)c12 [Quercetagetin] (10 µM) | inactive: 0 | inactive: 0 | inactive: 0 | inactive: 0 | inactive: 0 | inactive: 0 | inactive: 0 | inactive: 0 | inactive: 0 | inactive: 0 |
| CC(=O)Nc1nc(C)c(-c2cc(C)c3c(c2)CN([C@@H](C)C2CC2)C3=O)s1 (10 µM) | inactive: 0 | inactive: 0 | inactive: 0 | inactive: 0 | inactive: 0 | inactive: 0 | inactive: 0 | inactive: 0 | inactive: 0 | inactive: 0 |
| CC(C)c1cc2c(c(O)c1O)[C@@]13CCCC(C)(C)[C@@H]1C[C@@H]2OC3=O [Carnosol] (2.5 µM) | inactive: 0 | inactive: 0 | inactive: 0 | inactive: 0 | inactive: 0 | inactive: 0 | inactive: 0 | inactive: 0 | inactive: 0 | inactive: 0 |
| O=C1NC(=O)C(Cc2c[nH]c3c(Cl)cccc23)N1 (stereo not given) [Necroptosis-IN-1] (10 µM) | inactive: 0 | inactive: 0 | inactive: 0 | inactive: 0 | inactive: 0 | inactive: 0 | inactive: 0 | inactive: 0 | inactive: 0 | inactive: 0 |
| CN(C)C(=O)c1cc2cnc(Nc3ccc(N4CCN(CCCCNC(=O)COc5cccc6c5C(=O)N(C5CCC(=O)NC5=O)C6=O)CC4)cn3)nc2n1C1CCCC1 (stereo not given) (10 µM) | inactive: 0 | inactive: 0 | inactive: 0 | inactive: 0 | inactive: 0 | inactive: 0 | inactive: 0 | inactive: 0 | inactive: 0 | inactive: 0 |
| COc1ccc(Br)c(C=O)c1O [6-Bromo-2-hydroxy-3-methoxybenzaldehyde] (10 µM) | inactive: 0 | inactive: 0 | inactive: 0 | inactive: 0 | inactive: 0 | inactive: 0 | inactive: 0 | inactive: 0 | inactive: 0 | inactive: 0 |
| COc1cc2c(cc1OC)[C@@H]1C(=O)c3ccc4c(c3O[C@@H]1CO2)C=CC(C)(C)O4 [Deguelin] (10 µM) | inactive: 0 | inactive: 0 | inactive: 0 | inactive: 0 | inactive: 0 | inactive: 0 | inactive: 0 | inactive: 0 | inactive: 0 | inactive: 0 |
| COCCNc1cc(NC(=O)N2CCCc3cc(CN4CCOCC4=O)c(C=O)nc32)ncc1C#N (10 µM) | inactive: 0 | inactive: 0 | inactive: 0 | inactive: 0 | inactive: 0 | inactive: 0 | inactive: 0 | inactive: 0 | inactive: 0 | inactive: 0 |
| COCCOc1cnc2ccn([C@H](C)c3nnc4c(F)cc(-c5cnn(C)c5)cn34)c(=O)c2c1 (10 µM) | inactive: 0 | inactive: 0 | inactive: 0 | inactive: 0 | inactive: 0 | inactive: 0 | inactive: 0 | inactive: 0 | inactive: 0 | inactive: 0 |
| CC(C)Cn1ncc2cc(Oc3ccc(F)cc3F)c(C(=O)NCCN(C)C)cc21 [p38α inhibitor 1] (10 µM) | inactive: 0 | inactive: 0 | inactive: 0 | inactive: 0 | inactive: 0 | inactive: 0 | inactive: 0 | inactive: 0 | inactive: 0 | inactive: 0 |
| Nc1ccc(C(=O)Nc2cccc(-c3nc(N4CCOCC4)c4oc5ncccc5c4n3)c2)cn1 (10 µM) | inactive: 0 | inactive: 0 | inactive: 0 | inactive: 0 | inactive: 0 | inactive: 0 | inactive: 0 | inactive: 0 | inactive: 0 | inactive: 0 |
| CCNC(=O)Nc1ccc(-c2nc3c(c(N4CCOC[C@@H]4C)n2)CCN(C2COC2)C3)cc1 (2.5 µM) | inactive: 0 | inactive: 0 | inactive: 0 | inactive: 0 | inactive: 0 | inactive: 0 | inactive: 0 | inactive: 0 | inactive: 0 | inactive: 0 |
| Cc1nn(CC(F)(F)F)cc1Nc1ncc(Br)c(NCc2ccc(S(N)(=O)=O)cc2)n1 (10 µM) | inactive: 0 | inactive: 0 | inactive: 0 | inactive: 0 | inactive: 0 | inactive: 0 | inactive: 0 | inactive: 0 | inactive: 0 | inactive: 0 |

Another view of part of the listing above:
SMILES	kinase-Nluc reporter destabilization hit call (PDPK1)	kinase-Nluc reporter destabilization hit call (PIK4CA)	kinase-Nluc reporter destabilization hit call (PIK4CB)	kinase-Nluc reporter destabilization hit call (PLK1)	kinase-Nluc reporter destabilization hit call (PRKAA1)	kinase-Nluc reporter destabilization hit call (PRKCA)	kinase-Nluc reporter destabilization hit call (PTK2)	kinase-Nluc reporter destabilization hit call (PTK2B)	kinase-Nluc reporter destabilization hit call (RAF1)	kinase-Nluc reporter destabilization hit call [1]
Cc1cnc(Nc2ccc(F)cc2Cl)nc1-c1c[nH]c(C(=O)N[C@H](CO)c2cccc(Cl)c2)c1 (10 µM)	inactive: 0	inactive: 0	inactive: 0	inactive: 0	inactive: 0	inactive: 0	inactive: 0	inactive: 0	inactive: 0	inactive: 0
O=C(Nc1ccc(Cl)cc1)C1CN(C(=O)c2cccc(-c3ccco3)c2)CC(F)(F)C1 (stereo not given) (2.5 µM)	inactive: 0	inactive: 0	inactive: 0	inactive: 0	inactive: 0	inactive: 0	inactive: 0	inactive: 0	inactive: 0	inactive: 0
Cc1ccc2c(NS(=O)(=O)c3ccccc3Cl)cccc2c1Oc1ncccc1-c1ccnc(N[C@H]2CCCNC2)n1 (2.5 µM)	inactive: 0	inactive: 0	inactive: 0	inactive: 0	inactive: 0	inactive: 0	inactive: 0	inactive: 0	inactive: 0	inactive: 0
CNC(=O)CN1CCC(Oc2cc3c(Nc4cccc(Cl)c4F)ncnc3cc2OC)CC1 [Sapitinib] (10 µM)	inactive: 0	inactive: 0	inactive: 0	inactive: 0	inactive: 0	inactive: 0	inactive: 0	inactive: 0	inactive: 0	inactive: 0
C[C@@H]1COC(Nc2ccc3ncnc(Nc4ccc(OCc5nccs5)c(Cl)c4)c3c2)=N1 [Varlitinib] (10 µM)	inactive: 0	inactive: 0	inactive: 0	inactive: 0	inactive: 0	inactive: 0	active: 1	inactive: 0	inactive: 0	inactive: 0
CN1CCN(c2ccc(-c3ccncc3-c3cc(F)c(O)c(F)c3)cc2)CC1 (10 µM)	inactive: 0	inactive: 0	inactive: 0	inactive: 0	inactive: 0	inactive: 0	inactive: 0	inactive: 0	inactive: 0	inactive: 0
O=c1c(O)c(-c2ccc(O)c(O)c2)oc2cc(O)c(O)c(O)c12 [Quercetagetin] (10 µM)	inactive: 0	inactive: 0	inactive: 0	inactive: 0	inactive: 0	inactive: 0	inactive: 0	inactive: 0	inactive: 0	inactive: 0
